# In publication PMC4045890:
# Tests used:
# [1] = target: T1, TAP-tagged Fep1 (S. pombe) (UniProt Q10134); experiment: co-IP; TAP pull-down: whole-cell extracts (~2.7 mg protein) of S. pombe cells co-expressing the tagged proteins, treated with Dip (250 µM) or FeCl3 (100 µM) for 30 min; IgG-Sepharose 6 Fast-Flow beads hold TAP or TAP-Fep1, 18 h at 4°C; lysis buffer 10 mM Tris-HCl pH 7.9, 0.1% Triton X-100, 0.5 mM EDTA, 20% glycerol, 100 mM NaCl; immunoblot with anti-Myc, anti-GFP and anti-α-tubulin
# T1 sequence: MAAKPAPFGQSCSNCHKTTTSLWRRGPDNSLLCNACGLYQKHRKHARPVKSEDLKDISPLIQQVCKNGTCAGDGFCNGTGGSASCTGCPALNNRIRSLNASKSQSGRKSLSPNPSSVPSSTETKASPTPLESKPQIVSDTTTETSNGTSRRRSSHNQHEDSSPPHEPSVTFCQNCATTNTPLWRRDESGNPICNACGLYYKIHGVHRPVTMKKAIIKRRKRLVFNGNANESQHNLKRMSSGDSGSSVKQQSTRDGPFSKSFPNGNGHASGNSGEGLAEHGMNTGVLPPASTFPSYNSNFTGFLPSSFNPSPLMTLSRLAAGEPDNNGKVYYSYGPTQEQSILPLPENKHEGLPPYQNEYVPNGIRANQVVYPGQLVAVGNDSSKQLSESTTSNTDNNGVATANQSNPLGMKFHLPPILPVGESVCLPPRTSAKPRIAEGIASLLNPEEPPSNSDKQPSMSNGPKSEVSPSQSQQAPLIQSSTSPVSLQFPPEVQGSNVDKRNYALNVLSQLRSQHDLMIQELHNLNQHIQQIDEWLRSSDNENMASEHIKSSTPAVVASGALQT
# [2] = target: T2, VN-tagged Fep1 (S. pombe) (UniProt Q10134); experiment: split reporter; BiFC with Venus fragments VN and VC in living S. pombe cells, iron-starved and iron-replete; fluorescence microscopy with Hoechst stain
# T2 sequence: T1 sequence
binding [1],binding [2],Substance
binds,–,Myc13-tagged Fra2 (S. pombe)
–,binds,VC-tagged Fra2 (S. pombe)
no binding,–,α-tubulin (S. pombe (endogenous in S. pombe cells))

# Results are given in words; binding and its absence hold for the method and conditions named. Binding seen in cells or lysates may run through a third protein. Binding can be weak; no strength is given. Sequences can lack the tags named with a protein.
